Results are given in words; binding and its absence hold for the method and conditions named. Some entries that bind do so weakly or less than the wild type.
Biological target: suppressor domain (SD, residues 1-223) of type 1 inositol 1,4,5-trisphosphate receptor, biotinylated (rat) (UniProt P29994)
Assay: bead aggregation assay; biotinylated protein (20 pmol) immobilised on streptavidin-coated magnetic beads (10 pmol binding sites), TEM (50 mM Tris-HCl, 1 mM EDTA, pH 8.3), 22°C, 30 min; aggregation of beads counted in DIC images (aggregation ratio); NT-beads also with 10 µM IP3, no significant effect; both purified

The chains behind the UniProt entries cited, without tags or fusion partners. Residues count along the entry.
UniProt P29994, residues 1-223: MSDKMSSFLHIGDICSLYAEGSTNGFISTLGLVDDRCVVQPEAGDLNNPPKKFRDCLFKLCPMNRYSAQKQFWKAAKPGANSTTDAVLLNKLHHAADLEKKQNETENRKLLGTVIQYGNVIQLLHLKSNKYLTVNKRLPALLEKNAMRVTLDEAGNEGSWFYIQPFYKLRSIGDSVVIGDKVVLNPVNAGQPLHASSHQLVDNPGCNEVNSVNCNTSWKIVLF

binding: binds weakly
Substance: suppressor domain (SD, residues 1-223) of type 1 inositol 1,4,5-trisphosphate receptor, biotinylated (from UniProt P29994 1-223) (domain or fragment)

Source: PMC3608601
